We go through one substance from US20190048090A1.

By UniProt entry, the sequences of proteins in these tests, tags left out. Where a name states a change or a piece, a line headed by the entry shows the natural chain unless it says otherwise. Residues count along the entry.
UniProt P17301: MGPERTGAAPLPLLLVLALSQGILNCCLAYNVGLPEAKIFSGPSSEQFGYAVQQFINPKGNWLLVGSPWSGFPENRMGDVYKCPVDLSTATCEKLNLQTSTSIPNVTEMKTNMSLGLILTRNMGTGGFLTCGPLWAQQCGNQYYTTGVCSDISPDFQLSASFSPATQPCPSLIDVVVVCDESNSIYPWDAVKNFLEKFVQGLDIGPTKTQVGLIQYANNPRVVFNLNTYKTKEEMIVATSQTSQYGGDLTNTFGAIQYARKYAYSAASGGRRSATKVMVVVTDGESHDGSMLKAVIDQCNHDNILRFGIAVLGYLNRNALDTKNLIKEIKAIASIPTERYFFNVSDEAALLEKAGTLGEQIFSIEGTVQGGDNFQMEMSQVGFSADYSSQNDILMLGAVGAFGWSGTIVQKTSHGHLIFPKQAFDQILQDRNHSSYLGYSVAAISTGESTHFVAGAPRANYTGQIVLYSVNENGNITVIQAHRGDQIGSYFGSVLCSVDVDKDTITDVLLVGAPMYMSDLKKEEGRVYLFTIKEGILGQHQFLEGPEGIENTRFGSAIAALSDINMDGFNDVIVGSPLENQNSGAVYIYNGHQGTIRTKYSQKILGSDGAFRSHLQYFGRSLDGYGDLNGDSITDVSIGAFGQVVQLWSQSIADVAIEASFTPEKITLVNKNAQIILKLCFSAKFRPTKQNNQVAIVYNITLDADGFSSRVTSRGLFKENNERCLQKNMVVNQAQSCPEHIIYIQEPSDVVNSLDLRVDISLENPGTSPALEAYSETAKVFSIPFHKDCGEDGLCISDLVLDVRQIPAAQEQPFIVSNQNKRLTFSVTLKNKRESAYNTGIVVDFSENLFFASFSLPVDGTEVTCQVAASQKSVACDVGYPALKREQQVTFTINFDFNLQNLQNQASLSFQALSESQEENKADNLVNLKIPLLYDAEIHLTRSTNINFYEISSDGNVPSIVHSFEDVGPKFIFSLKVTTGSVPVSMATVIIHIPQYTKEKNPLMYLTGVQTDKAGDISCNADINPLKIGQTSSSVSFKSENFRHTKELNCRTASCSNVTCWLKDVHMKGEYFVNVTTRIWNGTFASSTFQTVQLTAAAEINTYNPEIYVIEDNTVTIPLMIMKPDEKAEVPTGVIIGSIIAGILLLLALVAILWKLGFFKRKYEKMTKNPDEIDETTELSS
UniProt P05556: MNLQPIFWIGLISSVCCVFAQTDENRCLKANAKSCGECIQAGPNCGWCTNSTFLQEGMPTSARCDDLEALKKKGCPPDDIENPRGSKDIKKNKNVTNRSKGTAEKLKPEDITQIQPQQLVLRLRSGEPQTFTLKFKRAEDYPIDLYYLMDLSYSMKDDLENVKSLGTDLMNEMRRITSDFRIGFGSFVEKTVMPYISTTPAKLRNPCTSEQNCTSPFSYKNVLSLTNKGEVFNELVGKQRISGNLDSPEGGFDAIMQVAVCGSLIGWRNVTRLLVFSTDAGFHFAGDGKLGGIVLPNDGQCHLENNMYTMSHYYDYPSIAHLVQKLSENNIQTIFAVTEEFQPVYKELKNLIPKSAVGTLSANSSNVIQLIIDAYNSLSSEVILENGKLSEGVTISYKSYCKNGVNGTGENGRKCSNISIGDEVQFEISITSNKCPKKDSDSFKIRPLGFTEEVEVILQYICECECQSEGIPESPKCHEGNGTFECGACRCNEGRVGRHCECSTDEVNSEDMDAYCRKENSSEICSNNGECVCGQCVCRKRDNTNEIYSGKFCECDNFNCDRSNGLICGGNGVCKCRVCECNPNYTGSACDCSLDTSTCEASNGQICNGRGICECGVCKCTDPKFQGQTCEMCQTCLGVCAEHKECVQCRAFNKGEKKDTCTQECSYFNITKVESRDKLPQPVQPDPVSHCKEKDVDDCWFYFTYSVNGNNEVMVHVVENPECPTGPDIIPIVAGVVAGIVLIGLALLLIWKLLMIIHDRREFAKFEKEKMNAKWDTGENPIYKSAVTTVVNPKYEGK
UniProt Q12864, residues 23-832: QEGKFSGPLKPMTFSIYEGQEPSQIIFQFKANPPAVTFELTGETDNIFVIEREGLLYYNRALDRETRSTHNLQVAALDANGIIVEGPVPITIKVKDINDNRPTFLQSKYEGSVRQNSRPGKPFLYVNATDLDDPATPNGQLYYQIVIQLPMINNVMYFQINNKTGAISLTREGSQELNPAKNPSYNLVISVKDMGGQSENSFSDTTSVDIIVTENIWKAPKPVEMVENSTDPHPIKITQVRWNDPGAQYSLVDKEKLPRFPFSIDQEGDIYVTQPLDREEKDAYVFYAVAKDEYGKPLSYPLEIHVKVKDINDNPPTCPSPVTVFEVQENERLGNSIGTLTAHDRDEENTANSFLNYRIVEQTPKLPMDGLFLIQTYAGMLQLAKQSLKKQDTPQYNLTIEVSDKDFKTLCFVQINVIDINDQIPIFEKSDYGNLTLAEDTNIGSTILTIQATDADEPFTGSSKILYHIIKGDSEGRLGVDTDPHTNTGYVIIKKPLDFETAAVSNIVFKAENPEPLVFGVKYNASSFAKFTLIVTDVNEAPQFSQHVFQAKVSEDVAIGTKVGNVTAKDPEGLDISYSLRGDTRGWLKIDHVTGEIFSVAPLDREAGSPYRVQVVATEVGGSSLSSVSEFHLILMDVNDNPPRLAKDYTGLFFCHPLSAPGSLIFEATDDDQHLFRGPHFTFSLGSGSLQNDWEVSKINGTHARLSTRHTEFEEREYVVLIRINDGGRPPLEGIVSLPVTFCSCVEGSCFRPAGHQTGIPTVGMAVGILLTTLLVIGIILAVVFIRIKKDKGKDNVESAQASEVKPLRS

For this experiment, the target named is α2β1 integrin (human) (UniProt P17301+P05556). Description: co-immunoprecipitation and western blot, transfected RKO cells. Background: In western blotting, separated proteins are transferred to a membrane and probed.

These are yes or no findings as the source states them, for the method shown. Binding seen in cells or lysates may run through a third protein. Some entries that bind do so weakly or less than the wild type.

For the substance “CDH17 wild type (human cadherin 17) (from UniProt Q12864 23-832)”, the binding result was “binds”.
